Experimental findings from patent publication EP1655027A1, “9-(N-methyl-piperidyliden-4)-thioxanthene for treatment of pulmonary hypertension and migraine” (Biofrontera Pharmaceuticals GmbH, priority 2004, dated 2006) are described below.

By UniProt entry, the sequences of proteins in these tests, tags left out.
UniProt P41595, whole entry: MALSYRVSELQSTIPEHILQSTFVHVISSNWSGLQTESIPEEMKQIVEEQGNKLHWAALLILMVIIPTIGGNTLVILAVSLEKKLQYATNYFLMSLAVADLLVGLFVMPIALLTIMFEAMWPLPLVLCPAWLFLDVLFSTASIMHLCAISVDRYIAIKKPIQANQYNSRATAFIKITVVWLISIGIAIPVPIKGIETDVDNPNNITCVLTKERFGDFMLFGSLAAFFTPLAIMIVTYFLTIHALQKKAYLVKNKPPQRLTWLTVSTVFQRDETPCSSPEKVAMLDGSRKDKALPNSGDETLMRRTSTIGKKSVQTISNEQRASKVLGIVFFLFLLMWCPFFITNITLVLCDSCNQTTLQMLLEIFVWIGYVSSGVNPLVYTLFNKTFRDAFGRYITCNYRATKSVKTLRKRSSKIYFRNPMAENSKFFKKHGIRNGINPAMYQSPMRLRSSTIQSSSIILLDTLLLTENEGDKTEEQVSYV

For the assay, the target named is human 5-HT2B receptor (Homo sapiens, UniProt P41595). Description: Cloned human 5-HT2B receptor binding assay, [3H]-5HT.

For the molecule `CC[C@@H](CO)NC(=O)[C@@H]1C=C2c3cccc4c3c(cn4C)C[C@H]2N(C)C1` [Methysergide], the Ki (commonly the dissociation constant of the complex between target and ligand, obtained from inhibition or displacement) is 1.41 nM.
